Source: patent publication US9738644B2, “Chemical compounds, compositions and methods for kinase modulation” (Infinity Pharmaceuticals, Inc., priority 2010, dated 2017)
Entries after “also recorded” stand apart in the source; their conditions may differ. For at least one compound, name, drawing or mass did not settle the structure.

What was measured:
[1] = tested on: haematological malignancies; details: patients; single agent; cited from earlier work
CCL3, CCL4, and CXCL13 = details: CLL; cited from earlier work
Akt-S473 and S6 = test: Kinase signaling in blood (phosflow, anti-CD3 stimulation); format: cell-based; details: splenocytes or peripheral blood mononuclear cells

Compound | clinical activity in haematological malignancies [1] | expression of stromal and T-cell derived factors (CCL3, CCL4, and CXCL13) | anti-CD3 mediated phosphorylation of Akt-S473 and S6 (Akt-S473 and S6)
CC[C@H](Nc1ncnc2[nH]cnc12)c1nc2cccc(F)c2c(=O)n1-c1ccccc1 [CAL-101] | showed activity in CLL in patients with poor prognostic characteristics; also recorded: induces rapid lymph node reduction and redistribution of lymphocytes into the circulation; also recorded: active in mantle cell lymphoma and refractory non Hodgkin's lymphoma | suppresses the expression of stromal and T-cell derived factors including CCL3, CCL4, and CXCL13 | 
CO[C@H]1C[C@@H]2CC[C@@H](C)[C@@](O)(O2)C(=O)C(=O)N2CCCC[C@H]2C(=O)O[C@H]([C@H](C)C[C@@H]2CC[C@@H](O)[C@H](OC)C2)CC(=O)[C@H](C)/C=C(\C)[C@@H](O)[C@@H](OC)C(=O)[C@H](C)C[C@H](C)/C=C/C=C/C=C/1C [rapamycin] |  |  | inhibits S6 phosphorylation and enhances Akt phosphorylation
